Test results reported in US4734399A (Hoffmann-La Roche Inc., priority 1986, dated 1988).

Experiment: Boc solid-phase peptide synthesis; PAM-resin; DCC; symmetric anhydride procedure
Details: whole synthesis, scale 0.21 mmol

Substance: [Ala^15,Leu^27,Asn^28 ]-GRF(1-32)-OH
- crude mass: 0.524 g
